Read-outs that look alike come from different tables or passages of the source. No constants are given. Whether binding was seen depends on the method and setting. For part of these data: A result given as binding can be weak or reduced; the word gives no strength.
What was measured:
Assay in all cases: ReLo
[1] = target: T1, NOT2 (subunit of the Drosophila CCR4-NOT core complex) (Drosophila) (UniProt Q94547)
T1 sequence: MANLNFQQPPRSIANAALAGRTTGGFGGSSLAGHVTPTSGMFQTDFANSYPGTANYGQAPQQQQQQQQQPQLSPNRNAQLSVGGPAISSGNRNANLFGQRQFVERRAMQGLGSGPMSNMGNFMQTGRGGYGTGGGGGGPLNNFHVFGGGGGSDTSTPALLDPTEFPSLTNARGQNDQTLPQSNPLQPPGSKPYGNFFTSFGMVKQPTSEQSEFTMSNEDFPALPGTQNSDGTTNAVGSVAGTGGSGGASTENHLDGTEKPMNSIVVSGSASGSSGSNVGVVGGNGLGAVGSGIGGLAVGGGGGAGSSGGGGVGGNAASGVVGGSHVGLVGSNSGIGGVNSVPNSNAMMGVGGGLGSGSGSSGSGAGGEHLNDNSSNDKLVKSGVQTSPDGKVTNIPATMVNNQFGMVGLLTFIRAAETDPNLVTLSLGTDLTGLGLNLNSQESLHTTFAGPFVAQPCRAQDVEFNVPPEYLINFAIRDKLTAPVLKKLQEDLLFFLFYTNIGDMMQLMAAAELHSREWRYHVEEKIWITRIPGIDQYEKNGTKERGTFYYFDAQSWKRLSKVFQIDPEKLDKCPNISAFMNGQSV

[2] = target: T1, NOT2 (subunit of the Drosophila CCR4-NOT core complex) (Drosophila); remark: listed apart in the source
[3] = target: T2, Drosophila Nanos (Drosophila) (UniProt P25724)
T2 sequence: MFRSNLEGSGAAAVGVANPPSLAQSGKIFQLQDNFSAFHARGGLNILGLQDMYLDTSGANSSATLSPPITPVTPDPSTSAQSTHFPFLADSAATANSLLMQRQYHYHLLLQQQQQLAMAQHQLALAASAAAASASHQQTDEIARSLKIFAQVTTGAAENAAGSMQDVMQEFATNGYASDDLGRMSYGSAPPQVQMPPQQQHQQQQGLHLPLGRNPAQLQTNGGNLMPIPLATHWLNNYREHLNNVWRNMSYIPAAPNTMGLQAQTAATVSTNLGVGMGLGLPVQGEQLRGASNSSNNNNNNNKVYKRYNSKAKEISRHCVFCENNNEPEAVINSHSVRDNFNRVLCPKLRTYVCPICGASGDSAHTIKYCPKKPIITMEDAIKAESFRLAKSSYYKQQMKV

[4] = target: T3, Drosophila Cup (Drosophila) (UniProt Q9VMA3)
T3 sequence: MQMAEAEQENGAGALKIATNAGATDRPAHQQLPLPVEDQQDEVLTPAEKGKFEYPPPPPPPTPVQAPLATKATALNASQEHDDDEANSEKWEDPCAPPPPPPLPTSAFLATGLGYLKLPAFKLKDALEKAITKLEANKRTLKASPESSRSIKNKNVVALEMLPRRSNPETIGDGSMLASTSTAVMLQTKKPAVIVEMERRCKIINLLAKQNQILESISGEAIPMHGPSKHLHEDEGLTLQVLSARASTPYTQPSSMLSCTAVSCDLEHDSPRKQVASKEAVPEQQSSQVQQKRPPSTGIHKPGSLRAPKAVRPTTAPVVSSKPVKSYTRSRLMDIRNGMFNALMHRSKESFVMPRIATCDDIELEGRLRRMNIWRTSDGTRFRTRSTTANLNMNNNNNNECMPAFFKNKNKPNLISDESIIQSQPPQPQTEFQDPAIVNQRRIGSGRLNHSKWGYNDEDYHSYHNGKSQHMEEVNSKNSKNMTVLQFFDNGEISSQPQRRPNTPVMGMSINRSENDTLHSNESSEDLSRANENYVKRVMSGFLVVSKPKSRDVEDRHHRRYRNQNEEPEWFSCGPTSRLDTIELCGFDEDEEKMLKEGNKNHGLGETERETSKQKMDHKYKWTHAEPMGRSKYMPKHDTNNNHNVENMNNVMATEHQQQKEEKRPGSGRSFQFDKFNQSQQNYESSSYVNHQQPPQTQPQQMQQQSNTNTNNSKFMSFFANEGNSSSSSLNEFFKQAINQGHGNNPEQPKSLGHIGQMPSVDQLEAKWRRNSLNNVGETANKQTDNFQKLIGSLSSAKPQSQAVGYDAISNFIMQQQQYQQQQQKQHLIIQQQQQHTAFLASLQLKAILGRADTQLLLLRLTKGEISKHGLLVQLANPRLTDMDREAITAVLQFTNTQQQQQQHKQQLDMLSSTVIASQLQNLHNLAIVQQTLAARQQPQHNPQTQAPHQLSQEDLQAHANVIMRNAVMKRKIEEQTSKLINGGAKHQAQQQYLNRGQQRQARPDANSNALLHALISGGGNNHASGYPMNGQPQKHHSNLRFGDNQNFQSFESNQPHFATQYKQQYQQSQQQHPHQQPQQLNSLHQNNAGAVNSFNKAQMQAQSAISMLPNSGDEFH

[5] = target: T2, Drosophila Nanos (Drosophila); remark: listed apart in the source

Row | Substance | binding [1] | binding [2] | binding [3] | binding [4] | binding [5]
1 | CAF1 (subunit of the Drosophila CCR4-NOT core complex) | no binding | no binding | – | – | –
2 | Bruno | – | no binding | no binding (only with Cup coexpressed) | binds | binds
